Each structure is given as a SMILES string. The list does not hold the whole screen: it gathers tests that were run many times, whatever their T/C, doses with no T/C, and many T/C values between a quarter and a half above the control. Further doses and runs are listed elsewhere. T/C gives the treated animals as a percentage of the vehicle group. Some entries give survivors of the animals treated and no T/C: the source files T/C as zero there, which appears to mark a toxic dose or a test without result, not a measured value. Some survivor counts are full or nearly so, which does not show that the dose was tolerated: the source hardly ever lists a survival T/C far under the control, and the zero likely stands for such cases as well. Survivors were counted at the toxicity check, usually on the fifth day, unless a day is given; later deaths do not show. Schedules are NCI's codes, taken here to give the interval after Q, in days (D) or hours (H), and the number of doses after X. For survival time, the PubChem record calls one and a half times the control and up active, and a quarter to a half above the control has no call in these data; cut-offs in other NCI protocols can differ. Some T/C values are followed by the survivors on the day toxicity was checked, most often the fifth; where none is given, no animal had died by that day. Some doses were run more than once; their values stand side by side, smallest first. Brackets with × say how often a value occurs here.

The test system of this test is P388 leukemia ip, CD2F1 mice, survival T/C. The experiment in a line: NCI In Vivo Anticancer Drug Screen. Data for tumor model P388 Leukemia (intraperitoneal) in CD2F1 (CDF1) mice. The settings on record: T/C endpoint: median survival time, higher T/C = longer survival.
[1] abbreviates: dose: 240.0 mg/kg/injection, schedule: Q01DX005 (ip), vehicle: saline with Tween-80.
Setting [2] is: dose: 120.0 mg/kg/injection, schedule: Q01DX005 (ip), vehicle: saline with Tween-80.
[3] abbreviates: dose: 6.0 mg/kg/injection, schedule: Q01DX005 (ip), vehicle: saline.

In the case of `Cc1c(C#N)c2n(c1C)CC(=O)N2`, the survivor count under setting [1] is listed as 0 of 6.
`O=NNc1ncc(Cl)cc1Cl`: the T/C was 128 % of control (dose: 25.0 mg/kg/injection, schedule: Q01DX009 (ip), vehicle: water) and 145 % of control (dose: 50.0 mg/kg/injection, schedule: Q01DX009 (ip), vehicle: water).
Regarding `CNC(=O)NC(c1cc(OC)c(OC)c(OC)c1)c1cc2c(cc1O)OCO2` (stereo not given), the survivor count (dose: 120.0 mg/kg/injection, schedule: Q01DX005 (ip), vehicle: Klucel (hydroxypropylcellulose) (HPC)) is given as 6 of 6.
For `CCN(CCNc1ccc(C)c2sc3ccccc3c(=O)c12)CC(C)(C)O`, the T/C (dose: 100.0 mg/kg/injection, schedule: Q04DX003 (ip), vehicle: saline) is 131 % of control and the T/C (dose: 200.0 mg/kg/injection, schedule: Q04DX003 (ip), vehicle: saline) is 140 % of control. For the same molecule, for the setting “dose: 400.0 mg/kg/injection, schedule: Q04DX003 (ip), vehicle: saline”, the survivor count is 5 of 6.
`COc1ccc(C(c2c(O)c3ccccc3oc2=O)N2CCCC2)cc1` (stereo not given): the survivor count was 3 of 6 under setting [2] and 1 of 6 under setting [1].
For the molecule `CC(=O)Nc1ccc(-c2csc(Nc3ccnc4cc(Cl)ccc34)n2)cc1`, the survivor count (dose: 100.0 mg/kg/injection, schedule: Q01DX005 (ip), vehicle: saline with Tween-80) is given as 6 of 6.
As to `CC(=O)OC1CCN(C)CC1CCl` (stereo not given), the survivor count reads like this: (dose: 100.0 mg/kg/injection, schedule: Q01DX009 (ip), vehicle: saline) 6 of 6; (dose: 200.0 mg/kg/injection, schedule: Q01DX009 (ip), vehicle: saline) 2 of 6.
`Nc1ncn(C2OC(CO)C(O)C2O)c(=O)n1` (stereo not given): the T/C is, setting by setting: (dose: 0.5 mg/kg/injection, schedule: Q01DX005 (ip), vehicle: water) 136 % of control; (dose: 2.0 mg/kg/injection, schedule: Q01DX005 (ip), vehicle: saline, evaluated on day 30) 198 % of control; (dose: 2.0 mg/kg/injection, schedule: Q01DX005 (ip), vehicle: saline, evaluated on day 35) 167 and 181 % of control; (dose: 2.0 mg/kg/injection, schedule: Q01DX005 (ip), vehicle: saline, evaluated on day 45) 171 % of control; (dose: 3.0 mg/kg/injection, schedule: Q01DX009 (ip), vehicle: saline, evaluated on day 5) 246 % of control; (dose: 3.0 mg/kg/injection, schedule: Q01DX009 (ip), vehicle: saline, evaluated on day 30) 162 and 227 % of control. The T/C is, setting by setting: (dose: 3.0 mg/kg/injection, schedule: Q01DX009 (ip), vehicle: saline, evaluated on day 60) 273 % of control; (dose: 4.0 mg/kg/injection, schedule: Q01DX005 (ip), vehicle: saline, evaluated on day 30) 243 % of control; (dose: 4.0 mg/kg/injection, schedule: Q01DX005 (ip), vehicle: saline, evaluated on day 35) 220 [7 of 8 alive] and 235 % of control; (dose: 4.0 mg/kg/injection, schedule: Q01DX005 (ip), vehicle: saline, evaluated on day 45) 214 % of control; (dose: 5.18 mg/kg/injection, schedule: Q04DX002 (ip), vehicle: saline) 146 % of control; (dose: 30.0 mg/kg/injection, schedule: Q01DX009 (ip), vehicle: saline, evaluated on day 30) 262 % of control. Besides, the T/C runs as follows: (dose: 30.0 mg/kg/injection, schedule: Q01DX009 (ip), vehicle: saline, evaluated on day 45) 204, 235, 250, 260, 273 % of control; (dose: 30.0 mg/kg/injection, schedule: Q01DX009 (ip), vehicle: saline, evaluated on day 60) 226 [8 of 10 alive] and 262 % of control; (dose: 44.0 mg/kg/injection, schedule: Q01DX009 (ip), vehicle: saline, evaluated on day 30) 265 % of control; (dose: 44.0 mg/kg/injection, schedule: Q01DX009 (ip), vehicle: saline, evaluated on day 45) 216, 246, 266, 267, 269 % of control (2×); (dose: 44.0 mg/kg/injection, schedule: Q01DX009 (ip), vehicle: saline, evaluated on day 48) 229 % of control; (dose: 44.0 mg/kg/injection, schedule: Q01DX009 (ip), vehicle: saline, evaluated on day 60) 217, 231, 286, 287 % of control. For the same molecule, the T/C is, setting by setting: (dose: 49.0 mg/kg/injection, schedule: Q01DX001 (ip), vehicle: saline) 148 % of control; (dose: 67.0 mg/kg/injection, schedule: Q01DX009 (ip), vehicle: saline, evaluated on day 30) 278 % of control; (dose: 67.0 mg/kg/injection, schedule: Q01DX009 (ip), vehicle: saline, evaluated on day 45) 158, 248, 284, 289, 298, 301 % of control; (dose: 67.0 mg/kg/injection, schedule: Q01DX009 (ip), vehicle: saline, evaluated on day 48) 241 % of control; (dose: 67.0 mg/kg/injection, schedule: Q01DX009 (ip), vehicle: saline, evaluated on day 60) 240, 240 [9 of 10 alive], 278, 299 % of control; (dose: 100.0 mg/kg/injection, schedule: Q01DX009 (ip), vehicle: saline, evaluated on day 30) 131 and 292 % of control. For the same molecule, the T/C is, setting by setting: (dose: 100.0 mg/kg/injection, schedule: Q01DX009 (ip), vehicle: saline, evaluated on day 45) 110, 214, 282, 298, 306, 314 % of control; (dose: 100.0 mg/kg/injection, schedule: Q01DX009 (ip), vehicle: saline, evaluated on day 48) 268 % of control; (dose: 100.0 mg/kg/injection, schedule: Q01DX009 (ip), vehicle: saline, evaluated on day 60) 271, 274, 310, 316 % of control; (dose: 150.0 mg/kg/injection, schedule: Q01DX009 (ip), vehicle: saline, evaluated on day 30) 275 % of control; (dose: 150.0 mg/kg/injection, schedule: Q01DX009 (ip), vehicle: saline, evaluated on day 45) 111, 141, 243, 302, 306, 312 % of control; (dose: 150.0 mg/kg/injection, schedule: Q01DX009 (ip), vehicle: saline, evaluated on day 48) 284 % of control. For the same molecule, where the note is “dose: 150.0 mg/kg/injection, schedule: Q01DX009 (ip), vehicle: saline, evaluated on day 60”, the T/C was 272, 275, 302 % of control. In addition, the survivor count (dose: 12.5 mg/kg/injection, schedule: Q01DX009 (ip), vehicle: saline) is reported as 5 of 6 and the survivor count (dose: 16.0 mg/kg/injection, schedule: Q01DX005 (ip), vehicle: saline) is reported as 8 of 8.
As for `CNC(=O)OCc1c(COC(=O)NC)c(C)n(-c2ccc(OC)cc2)c1C`, the T/C was 136 % of control (dose: 12.5 mg/kg/injection, schedule: Q01DX009 (ip), vehicle: Klucel (hydroxypropylcellulose) (HPC)) and 142 % of control (dose: 25.0 mg/kg/injection, schedule: Q01DX009 (ip), vehicle: Klucel (hydroxypropylcellulose) (HPC)).
`CCCC[N+](CCCC)=c1ccc2nc3c(C)cc(N(CC)CC)cc3sc-2c1`: under setting [3], the T/C is 130 % of control. The survivor count by setting is: under setting [3], 3 of 5; (dose: 12.0 mg/kg/injection, schedule: Q01DX005 (ip), vehicle: saline) 2 of 5; (dose: 12.5 mg/kg/injection, schedule: Q01DX005 (ip), vehicle: saline) 4 of 5; (dose: 25.0 mg/kg/injection, schedule: Q01DX005 (ip), vehicle: saline) 0 of 5; (dose: 50.0 mg/kg/injection, schedule: Q01DX005 (ip), vehicle: saline) 0 of 5; (dose: 100.0 mg/kg/injection, schedule: Q01DX005 (ip), vehicle: saline) 0 of 5. Further, the survivor count (dose: 200.0 mg/kg/injection, schedule: Q01DX005 (ip), vehicle: saline) was 0 of 5.
Regarding `O=c1c2ccccc2[nH]c2cc3c(=O)n4ccccc4nc3cc12`, the survivor count under setting [2] is on record as 5 of 6.
Consider `CN(C)c1ccc(N=Nc2ccc([As](=O)(O)O)cc2)cc1`, for which the survivor count runs as follows: (dose: 2.0 mg/kg/injection, schedule: Q01DX009 (ip), vehicle: saline with Tween-80) 1 of 6; (dose: 3.0 mg/kg/injection, schedule: Q01DX009 (ip), vehicle: saline with Tween-80) 5 of 6; (dose: 6.0 mg/kg/injection, schedule: Q01DX009 (ip), vehicle: saline with Tween-80) 5 of 6; (dose: 12.0 mg/kg/injection, schedule: Q01DX009 (ip), vehicle: saline with Tween-80) 0 of 6.

(Values after PubChem BioAssay AID330 (DTP/NCI, 2004).)
